Measured values published in PubChem BioAssay AID2685 (National Center for Advancing Translational Sciences (NCATS), 2010).
The other results are listed elsewhere or left out. The main result of the screen is listed elsewhere. These columns were measured beside it and carry no call. Most of these compounds were active or inconclusive in the main read-out, so they are no random draw. The note in brackets gives the kind of curve behind each potency; many fits are weak.

Assay: qHTS Assay for Lipid Storage Modulators in Drosophila S3 Cells;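 as to cell number change: cells counted by Cell Tracker Red CMTPX staining in the red channel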
Details: BODIPY lipid droplet fluorescence, 18-24 h; for cell number change: measured here: cell count max response, cells fed with added oleic acid
Procedure, shortened: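 Drosophila S3 cells got compounds at several concentrations plus oleic acid (400 uM solution). Laser-scanning cytometry with 488 nm excitation read lipid droplets at 500-530 nm and cells at 575-640 nm. Percent activity was relative to 20 uM Triacsin C.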

[1] = measured here: lipid fluorescence (Fed channel) AC50, cells fed with added oleic acid
[2] = measured here: cell number channel AC50, cells fed with added oleic acid

Compound | cell number change | AC50 [1] | AC50 [2]
COc1ccc(C(=O)Nc2ccc3[nH]ncc3c2)cc1 | 3.7% | 29.1 µM [falling, single point] | –
Cc1cc(C(N)=O)c2cc(Br)ccc2n1 | – | 6.51 µM [rising, single point] | –
O=C(CCc1ccccc1)NNC(=O)c1ccc(Cl)cc1 | 4.76% | 2.31 µM [rising, partial curve, poor fit] | –
CC(C)C(NC(=O)c1ccco1)C(=O)OCC(=O)N1CC(=O)Nc2ccccc21 (stereo not given) | 3.57% | 7.31 µM [rising, partial curve, poor fit] | –
COc1ccccc1N1CCN(C(=O)CN2C(=O)C3CCCCC3C2=O)CC1 (stereo not given) | 12.1% | 0.00517 µM [falling, full curve, poor fit] | –
CC1=C(/C=C/C(C)=C/C=C/C(C)=C/C(=O)Nc2ccc(O)cc2)C(C)(C)CCC1 | -88.8% | – | 5.17 µM [falling, single point]
CC(=O)Nc1ccc(OCC(=O)N2CCc3ccccc3C2)cc1 | 15.4% | 5.17 µM [falling, single point] | –
COc1ccc(S(=O)(=O)N2CCCCC2)cc1NC(=O)CCOc1cc(C)ccc1C | 4.67% | 3.26 µM [rising, partial curve, poor fit] | –
Cc1nccc(-c2ccc(-n3c(C)ccc3C)cc2)n1 | – | 23.1 µM [rising, partial curve] | –
CCOC(=O)CN1Cc2cccc(C(=O)O)c2C1=O | 9.69% | 0.92 µM [falling, full curve, poor fit] | –
CCOC(=O)N1CCN(S(=O)(=O)N2CCCC(C(=O)NCc3ccc(OC)cc3)C2)CC1 (stereo not given) | -19.9% | 2.31 µM [falling, single point] | –
COc1ccc(CCNc2nc3ccc(C)cc3n3cnnc23)cc1OC | 20.2% | – | –
Nc1cc(-c2ccc(OC(F)(F)F)cc2)nn1-c1ccc(Cl)c(Cl)c1 | -51.8% | 20.6 µM [falling, partial curve, poor fit] | 7.31 µM [falling, partial curve, poor fit]
CC1(C)CC(=O)C(C=NCC2CCNCC2)=C(O)C1 | -21.3% | 5.17 µM [falling, full curve] | –
COc1ccc(N(CC(=O)NC2CCCCCC2)S(=O)(=O)c2ccc(C)cc2)cc1OC | -0.88% | 0.116 µM [rising, single point] | –
O=C(CCNC(=O)c1ccc([N+](=O)[O-])cc1)NNC(=O)c1ccccc1F | 14.6% | 0.651 µM [falling, single point] | –
O=C(NCCCN1CCOCC1)c1cc(-c2ccc(Br)cc2)on1 | 9.85% | – | –
O=C(Nc1ccc(C(=O)O)cc1)Nc1ccc([N+](=O)[O-])cc1 | 39.9% | 29.1 µM [rising, single point] | –
COc1c(F)c(F)c(C(=O)Nc2ccccc2N2CCN(C(=O)C(C)C)CC2)c(F)c1F | -18.8% | 0.146 µM [falling, single point] | –

Compound | cell number change | AC50 [1] | AC50 [2]
CCc1c(C)nc2ncnn2c1N1CCCC(C(=O)NCc2ccc3c(c2)OCO3)C1 (stereo not given) | -31.3% | – | 23.1 µM [falling, single point]
CN(Cc1nccs1)C(=O)C1CCC(=O)N(Cc2ccccc2F)C1 (stereo not given) | -10.9% | 29.1 µM [rising, single point] | –
COC(=O)c1ccc(OC)c(CSc2nnc(COc3ccc(Cl)cc3)o2)c1 | 141% | 6.51 µM [rising, single point] | 14.6 µM [rising, partial curve]
CCCCc1nnc(NC(=O)CC(=O)Nc2ccccc2C(=O)O)s1 | 12.9% | – | –
COc1cc(C(=O)Nc2ccc(C)cn2)ccc1OCC(=O)N1CCOCC1 | – | 1.03 µM [falling, full curve] | –
CS(=O)(=O)C1=NSC2=NC(=O)/C(=C\c3cccn3-c3ccccc3Cl)C(=N)N21 | 39.4% | 1.64 µM [rising, partial curve] | 2.31 µM [rising, single point]
COc1ccccc1NC(=O)CCSCCC(=O)Nc1ccccc1OC | -59.1% | 6.51 µM [rising, single point] | 14.6 µM [falling, partial curve, poor fit]
CSc1ccccc1C(=O)OCC(=O)NC1CCS(=O)(=O)C1 (stereo not given) | -28% | – | –
COc1ccc(OC)c(C2=NOC(C(=O)N3CCCc4ccccc43)C2)c1 (stereo not given) | -34.9% | – | 18.4 µM [falling, single point]
N/C(=N\OC(=O)COc1ccc(Br)cc1)c1ccncc1 | 58.9% | 2.06 µM [rising, partial curve] | 29.1 µM [rising, single point]
Cc1ccc(O)c(NC(=S)NC(=O)CC(C)C)c1 | 50% | 29.1 µM [rising, single point] | 1.84 µM [rising, partial curve, poor fit]
CCOC(=O)C1(CCOc2ccccc2)CCN(Cc2ccc(C)o2)CC1 | -46.4% | – | –
O=C(CNC(=O)c1ccccc1F)NNC(=O)c1ccccc1O | 19.4% | 6.51 µM [falling, single point] | –
CN1CCN(c2ccccc2NC(=O)c2ccc([N+](=O)[O-])o2)CC1 | -37.2% | – | 23.1 µM [falling, single point]
COc1ccc(/C=C/C(=O)c2cc(Cl)cc(Cl)c2O)c(OC)c1 | – | – | 0.92 µM [rising, partial curve]
COc1ccc(C(=O)NC(C)c2nnc(SCC(=O)Nc3nc(C)cs3)n2C)cc1 (stereo not given) | 11.3% | 6.51 µM [rising, single point] | 0.461 µM [rising, full curve, poor fit]
O=C(Nc1nc(-c2ccccc2Cl)cs1)c1cccnc1 | 2.06% | 6.51 µM [rising, single point] | –
O=C(O)CN1C(=O)CSC1=S | 14.4% | 29.1 µM [rising, single point] | 0.00411 µM [rising, full curve, poor fit]
CC(=O)N/C(=C\c1ccc(F)cc1)C(=O)N(C)C | -18.5% | 2.06 µM [falling, single point] | –

A different layout for some results above.
Compound	cell number change	AC50 [1]	AC50 [2]
CCc1c(C)nc2ncnn2c1N1CCCC(C(=O)NCc2ccc3c(c2)OCO3)C1 (stereo not given)	-31.3%	–	23.1 µM [falling, single point]
O=C(CNC(=O)c1ccccc1F)NNC(=O)c1ccccc1O	19.4%	6.51 µM [falling, single point]	–
